In PMC6095599:
Results are given in words; binding and its absence hold for the method and conditions named. In cells and extracts the contact can be indirect. Some entries that bind do so weakly or less than the wild type. Where a sequence is shown, tags or fusion partners need not be part of it.

T1: GST–Cdc4 (budding yeast) (UniProt P07834)
T1 sequence: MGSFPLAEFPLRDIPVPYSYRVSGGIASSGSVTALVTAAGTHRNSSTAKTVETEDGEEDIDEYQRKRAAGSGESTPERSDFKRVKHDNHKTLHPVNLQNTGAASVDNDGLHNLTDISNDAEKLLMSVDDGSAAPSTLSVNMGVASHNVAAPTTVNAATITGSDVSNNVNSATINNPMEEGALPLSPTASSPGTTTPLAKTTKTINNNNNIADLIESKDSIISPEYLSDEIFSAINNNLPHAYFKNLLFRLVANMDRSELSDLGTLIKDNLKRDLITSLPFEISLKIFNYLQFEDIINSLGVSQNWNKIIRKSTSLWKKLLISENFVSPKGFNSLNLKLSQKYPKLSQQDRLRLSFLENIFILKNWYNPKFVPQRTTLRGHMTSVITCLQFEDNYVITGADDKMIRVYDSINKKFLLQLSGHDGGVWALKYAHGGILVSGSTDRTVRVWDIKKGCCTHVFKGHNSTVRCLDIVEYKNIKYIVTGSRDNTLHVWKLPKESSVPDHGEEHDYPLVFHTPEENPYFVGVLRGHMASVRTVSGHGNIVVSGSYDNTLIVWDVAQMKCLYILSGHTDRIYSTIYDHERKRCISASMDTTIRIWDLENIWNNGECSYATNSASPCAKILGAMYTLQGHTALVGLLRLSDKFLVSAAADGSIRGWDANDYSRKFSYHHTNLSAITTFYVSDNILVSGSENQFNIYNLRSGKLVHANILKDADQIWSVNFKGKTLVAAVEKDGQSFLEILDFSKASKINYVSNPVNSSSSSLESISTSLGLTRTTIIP

T2: GST fusion to Mad3 (budding yeast) (UniProt P47074)
T2 sequence: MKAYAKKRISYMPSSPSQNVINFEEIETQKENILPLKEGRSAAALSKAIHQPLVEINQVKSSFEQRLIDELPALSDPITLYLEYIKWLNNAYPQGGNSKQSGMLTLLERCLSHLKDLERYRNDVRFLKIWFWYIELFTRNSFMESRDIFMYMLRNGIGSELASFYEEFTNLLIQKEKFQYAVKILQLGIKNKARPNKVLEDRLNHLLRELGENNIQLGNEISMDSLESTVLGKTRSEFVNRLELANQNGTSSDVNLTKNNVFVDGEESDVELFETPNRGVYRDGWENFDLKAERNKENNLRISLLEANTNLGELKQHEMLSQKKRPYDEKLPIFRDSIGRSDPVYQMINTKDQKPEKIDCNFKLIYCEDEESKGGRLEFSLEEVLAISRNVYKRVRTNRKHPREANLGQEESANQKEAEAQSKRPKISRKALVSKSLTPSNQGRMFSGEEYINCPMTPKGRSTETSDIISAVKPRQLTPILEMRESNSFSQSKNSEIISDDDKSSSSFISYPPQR


How the values were obtained:
GST–Cdc4 (budding yeast) = target: T1, GST–Cdc4 (budding yeast); assay: pull-down; GST or GST–Cdc4 affinity purified with glutathione beads from extracts of yeast cells co-expressing Mad3–3HA or Mad3 ΔGLEBS–3HA; immunoblot with αHA and αGST
[1] = target: T2, GST fusion to Mad3 (budding yeast); assay: pull-down; GST fusions affinity purified with glutathione beads from extracts of cdc4ts grr1 yeast cells co-expressing Cln3–13myc; immunoblot with αmyc and αGST

Row | binding (GST–Cdc4 (budding yeast)) | binding [1] | Binder
1 | binds |  | Mad3–3HA (protein, UniProt P47074 1-515) MKAYAKKRISYMPSSPSQNVINFEEIETQKENILPLKEGRSAAALSKAIHQPLVEINQVKSSFEQRLIDELPALSDPITLYLEYIKWLNNAYPQGGNSKQSGMLTLLERCLSHLKDLERYRNDVRFLKIWFWYIELFTRNSFMESRDIFMYMLRNGIGSELASFYEEFTNLLIQKEKFQYAVKILQLGIKNKARPNKVLEDRLNHLLRELGENNIQLGNEISMDSLESTVLGKTRSEFVNRLELANQNGTSSDVNLTKNNVFVDGEESDVELFETPNRGVYRDGWENFDLKAERNKENNLRISLLEANTNLGELKQHEMLSQKKRPYDEKLPIFRDSIGRSDPVYQMINTKDQKPEKIDCNFKLIYCEDEESKGGRLEFSLEEVLAISRNVYKRVRTNRKHPREANLGQEESANQKEAEAQSKRPKISRKALVSKSLTPSNQGRMFSGEEYINCPMTPKGRSTETSDIISAVKPRQLTPILEMRESNSFSQSKNSEIISDDDKSSSSFISYPPQR
2 |  | binds | Cln3–13myc (protein, UniProt P13365 1-580) MAILKDTIIRYANARYATASGTSTATAASVSAASCPNLPLLLQKRRAIASAKSKNPNLVKRELQAHHSAISEYNNDQLDHYFRLSHTERPLYNLTNFNSQPQVNPKMRFLIFDFIMYCHTRLNLSTSTLFLTFTILDKYSSRFIIKSYNYQLLSLTALWISSKFWDSKNRMATLKVLQNLCCNQYSIKQFTTMEMHLFKSLDWSICQSATFDSYIDIFLFQSTSPLSPGVVLSAPLEAFIQQKLALLNNAAGTAINKSSSSQGPSLNINEIKLGAIMLCELASFNLELSFKYDRSLIALGAINLIKLSLNYYNSNLWENINLALEENCQDLDIKLSEISNTLLDIAMDQNSFPSSFKSKYLNSNKTSLAKSLLDALQNYCIQLKLEEFYRSQELETMYNTIFAQSFDSDSLTCVYSNATTPKSATVSSAATDYFSDHTHLRRLTKDSISPPFAFTPTSSSSSPSPFNSPYKTSSSMTTPDSASHHSHSGSFSSTQNSFKRSLSIPQNSSIFWPSPLTPTTPSLMSNRKLLQNLSVRSKRLFPVRPMATAHPCSAPTQLKKRSTSSVDCDFNDSSNLKKTR
